Test results: PMC4758748
Results are given in words; binding and its absence hold for the method and conditions named. Binding seen in cells or lysates may run through a third protein. Some entries that bind do so weakly or less than the wild type. Sequences can lack the tags named with a protein.

Tests used:
Inn1-TAP (S. cerevisiae) [1] = biological target: T1, Inn1-TAP (S. cerevisiae) (UniProt P53901); test: co-IP; yeast cell extracts 105 minutes after release from G1 arrest (alpha factor) at 24°C, cells in cytokinesis; TAP fusions immunoprecipitated on IgG beads; immunoblot
T1 sequence: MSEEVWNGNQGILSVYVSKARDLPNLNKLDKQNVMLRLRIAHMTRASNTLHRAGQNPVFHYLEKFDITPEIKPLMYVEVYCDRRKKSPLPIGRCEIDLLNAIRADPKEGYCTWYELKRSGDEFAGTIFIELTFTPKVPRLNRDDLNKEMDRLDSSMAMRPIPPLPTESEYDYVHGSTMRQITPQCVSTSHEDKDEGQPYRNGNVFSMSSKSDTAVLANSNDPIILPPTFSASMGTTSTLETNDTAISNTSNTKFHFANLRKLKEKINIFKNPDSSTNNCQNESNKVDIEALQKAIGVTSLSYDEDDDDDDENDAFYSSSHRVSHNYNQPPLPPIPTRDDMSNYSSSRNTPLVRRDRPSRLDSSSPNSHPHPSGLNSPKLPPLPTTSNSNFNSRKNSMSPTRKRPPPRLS

C2-TAP (S. cerevisiae) = biological target: T2, C2-TAP (S. cerevisiae) (UniProt P53901); test: as above
T2 sequence: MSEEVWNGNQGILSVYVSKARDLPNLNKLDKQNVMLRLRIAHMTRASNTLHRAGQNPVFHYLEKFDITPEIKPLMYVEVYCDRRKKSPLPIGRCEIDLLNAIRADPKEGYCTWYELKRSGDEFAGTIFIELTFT

[2] = biological target: T3, Inn1 C-terminus-TAP (S. cerevisiae) (UniProt P53901); test: as above
T3 sequence: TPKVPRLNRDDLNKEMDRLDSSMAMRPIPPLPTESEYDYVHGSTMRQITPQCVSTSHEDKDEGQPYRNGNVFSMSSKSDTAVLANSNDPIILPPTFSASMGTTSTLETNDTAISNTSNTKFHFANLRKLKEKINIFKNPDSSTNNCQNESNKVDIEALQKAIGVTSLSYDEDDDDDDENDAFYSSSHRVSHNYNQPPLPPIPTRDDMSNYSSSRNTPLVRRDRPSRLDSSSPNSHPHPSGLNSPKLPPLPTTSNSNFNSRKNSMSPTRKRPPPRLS

Inn1-TAP (S. cerevisiae) [3] = biological target: T1, Inn1-TAP (S. cerevisiae); test: co-IP; two steps: yeast extract 105 minutes after release from G1; Inn1-TAP on IgG beads, released with TEV protease (CBP stays on Inn1), then immunoprecipitation of Chs2-9MYC; immunoblot

Measured: binding

B1: Chs2-9MYC (enzyme, UniProt P14180 1-963)
chain: MTRNPFMVEPSNGSPNRRGASNLSKFYANANSNSRWANPSEESLEDSYDQSNVFQGLPASPSRAALRYSPDRRHRTQFYRDSAHNSPVAPNRYAANLQESPKRAGEAVIHLSEGSNLYPRDNADLPVDPYHLSPQQQPSNNLFGSGRLYSQSSKYTMSTTSTTAPSLAEADDEKEKYLTSTTSYDDQSTIFSADTFNETKFELNHPTRQQYVRRANSESKRRMVSDLPPPSKKKALLKLDNPIPKGLLDTLPRRNSPEFTEMRYTACTVEPDDFLREGYTLRFAEMNRECQIAICITMYNEDKYSLARTIHSIMKNVAHLCKREKSHVWGPNGWKKVSVILISDGRAKVNQGSLDYLAALGVYQEDMAKASVNGDPVKAHIFELTTQVSINADLDYVSKDIVPVQLVFCLKEENKKKINSHRWLFNAFCPVLQPTVVTLVDVGTRLNNTAIYRLWKVFDMDSNVAGAAGQIKTMKGKWGLKLFNPLVASQNFEYKISNILDKPLESVFGYISVLPGALSAYRYRALKNHEDGTGPLRSYFLGETQEGRDHDVFTANMYLAEDRILCWELVAKRDAKWVLKYVKEATGETDVPEDVSEFISQRRRWLNGAMFAAIYAQLHFYQIWKTKHSVVRKFFLHVEFLYQFIQMLFSWFSIANFVLTFYYLAGSMNLVIKHGEALFIFFKYLIFCDLASLFIISMGNRPQGAKHLFITSMVILSICATYSLICGFVFAFKSLASGTESHKIFVDIVISLLSTYGLYFFSSLMYLDPWHMFTSSIQYFLTLPAFTCTLQIFAFCNTHDVSWGTKGSTQESKQLSKAIVVQGPDGKQIVETDWPQEVDKKFLEIKSRLKEPEFEESSGNEKQSKNDYYRDIRTRIVMIWMLSNLILIMSIIQVFTPQDTDNGYLIFILWSVAALAAFRVVGSMAFLFMKYLRIIVSYRNKVEGSGSWEVSKLDLPNVFHKKG
binds: all assays above
